Whole data set: some 33,000 sequences, median “E-score (-0.5 to 0.5)” near -0.016, cut for the highest 2% near 0.3. The list shows a part of the results.
Biological target: T1, Yer184c (UniProt P39961)
T1 sequence: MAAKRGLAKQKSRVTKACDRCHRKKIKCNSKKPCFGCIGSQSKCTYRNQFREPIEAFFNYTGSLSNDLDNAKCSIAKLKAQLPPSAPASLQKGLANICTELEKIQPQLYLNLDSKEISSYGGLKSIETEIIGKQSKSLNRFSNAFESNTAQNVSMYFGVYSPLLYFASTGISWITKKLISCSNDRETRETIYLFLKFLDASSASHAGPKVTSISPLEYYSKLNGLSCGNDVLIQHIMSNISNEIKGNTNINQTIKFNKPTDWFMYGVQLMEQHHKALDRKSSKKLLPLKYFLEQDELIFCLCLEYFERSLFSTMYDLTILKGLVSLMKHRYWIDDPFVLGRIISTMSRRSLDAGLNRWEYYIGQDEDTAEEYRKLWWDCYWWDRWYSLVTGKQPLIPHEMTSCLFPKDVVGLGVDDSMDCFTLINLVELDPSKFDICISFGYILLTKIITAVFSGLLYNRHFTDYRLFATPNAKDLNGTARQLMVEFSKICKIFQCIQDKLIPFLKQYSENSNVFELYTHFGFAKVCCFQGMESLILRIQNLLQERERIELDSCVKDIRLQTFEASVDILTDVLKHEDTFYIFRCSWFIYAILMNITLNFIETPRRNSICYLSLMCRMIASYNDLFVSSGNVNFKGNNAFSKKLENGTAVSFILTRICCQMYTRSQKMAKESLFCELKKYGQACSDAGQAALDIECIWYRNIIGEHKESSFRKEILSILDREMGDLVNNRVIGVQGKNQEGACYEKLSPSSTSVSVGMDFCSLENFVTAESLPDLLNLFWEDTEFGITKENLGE
Assay: PBM E-score (8-mer binding enrichment) (E-score (-0.5 to 0.5)); higher = stronger / more preferred TF binding
Details: protein concentration: 100 nM; construct: GST-full length
Procedure, shortened: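 Universal all-10-mer Agilent arrays, double-stranded by primer extension on fresh or once-stripped slides, were probed with about 100-200 nM GST-tagged yeast transcription factors made by PURExpress. Fluorescent anti-GST detected bound protein, and masliner normalised the scans. E-scores from the Universal PBM Analysis Suite were given to each ungapped eight-base word pooled with its reverse complement.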

| Sequence | PBM E-score |
| --- | --- |
| GGTTGCCA | 0.0176 |
| ATGACTAC | -0.234 |
| CTAAGCGA | -0.0513 |
| GCGCAGCA | -0.243 |
| GCTCCTAC | -0.0782 |
| CCAGTAAG | -0.0131 |
| CATGTCGC | -0.196 |
| AGCTAGGC | -0.177 |
| ACGTCCCA | -0.316 |
| AGGGTAGA | -0.319 |
| ACTGCGAA | -0.214 |
| GGTACGGA | 0.114 |
| ACGCTTTG | -0.0397 |
| GCTATCCC | -0.16 |
| AAGCAAAT | -0.0534 |
| AGGACCAG | -0.205 |
| ATCACGAG | -0.208 |
| CAGCCTAG | -0.0522 |
| AGCGTAAG | -0.135 |
| ATTGAACG | 0.129 |
| ATCGTTGC | -0.111 |
| CTGGTAAA | -0.0435 |

| Sequence | PBM E-score |
| --- | --- |
| ACTGGCGC | -0.00584 |
| CCCTTCTA | -0.368 |
| GGCACAGA | 0.0481 |
| AGCCGCCT | -0.0288 |
| CGCGGACG | 0.0226 |
| ACTCTGAT | 0.0231 |
| ACATTCCG | 0.15 |
| GACGGCGA | -0.034 |
| AACGAAGT | -0.0531 |
| AAGCGAAA | -0.0557 |
| ACCGTGGC | -0.148 |
| ATGATGAC | -0.0685 |
| AATCAAAG | 0.113 |
| AACACATG | -0.0495 |
| CTCAGCAA | 0.147 |
| CAGGGCTA | -0.266 |
| AGTCTATA | 0.00985 |
| AATTAAAG | 0.135 |
| CCACTGTC | -0.209 |
| AGTTAAAG | 0.0577 |
| CGCTTCTA | -0.0336 |
| TGCTAGCA | 0.101 |

| Sequence | PBM E-score |
| --- | --- |
| GCACACTA | -0.00438 |
| CCCGAAGG | -0.119 |
| GCGTTTAA | 0.0121 |
| CCGCCTTC | -0.102 |
| AAGTGCGA | -0.174 |
| CCAGGAAA | 0.1 |
| AGAACGCG | 0.0697 |
| CGCGCGAA | 0.115 |
| ACCATCTG | -0.319 |
| CCTTCCTA | -0.339 |
| AATATGGA | -0.0254 |
| CACCCCGC | 0.0453 |
| ATACAGCC | -0.0921 |
| ACGCACCT | -0.157 |
| CTTGTGAC | -0.0813 |
| CCATACCA | -0.145 |
| ATGGACCG | 0.0524 |
| ATTGAGGC | 0.0358 |
| CATGGTTC | 0.128 |
| AGCTCAGA | -0.113 |
| CAGGTTCC | -0.0812 |
| GGTCTTAC | -0.0573 |

Reformatted field by field: entries from further up.
GCACACTA
  PBM E-score: -0.00438
ATACAGCC
  PBM E-score: -0.0921

(listing goes on)

| Sequence | PBM E-score |
| --- | --- |
| ACTTGGCC | -0.133 |
| CGCCTTCA | -0.266 |
| AACTGGAA | -0.0554 |
| CCGCTTGC | 0.00247 |
| CATCAATC | -0.0552 |
| AGTGTGTG | -0.0372 |
| GAGGAACC | 0.088 |
| CGGGCAGA | 0.17 |
| CACTCAAA | 0.00698 |
| GAACAACA | 0.163 |
| AGAAGACG | 0.149 |
| CAGTGCGG | 0.115 |
| CTTTCTAC | -0.0164 |
| CTAAACTC | -0.0375 |
| TCATTACA | 0.118 |
| ATTACATA | 0.0972 |
| AGATTACT | 0.059 |
| GCGGTGTA | 0.00944 |
| AGATACCT | -0.128 |
| CTAGAAAG | -0.0631 |

From the supplement of paper PMC3334620
